PubChem BioAssay AID1224830 | NIAID | 2016

- Test: 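Host factors that control LPS-induced TNF expression in human macrophages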 (primary screen)
- System: human THP-1 monocytic leukaemia cells, TNF dual-luciferase reporter clone, PMA-differentiated to macrophage-like cells
- Reagents: siRNA pool against human genes, 50 nM
- Time to read-out: LPS for 4 h, given about 3 days after siRNA transfection
- Conditions: bacterial LPS (TLR4 ligand), 10 ng/ml
- Measurement: 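Ratio of firefly to renilla light, scaled to the plate median and expressed as a robust z-score per replicate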
- Reading the numbers: TNF reporter robust z-score: higher = stronger TNF reporter response to LPS
- Active means: 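Each well counts as active if its z-score is over 2.8 or under -1.5; controls are left without a call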
Here is a random part of about 18,000 reagents tested. About 2,900 of them (16%) were called active. 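Calls are made per well; low scores hint the gene aids the LPS response, high scores that it dampens it.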 Repeated entries: four replicate wells of each siRNA pool.

target,TNF reporter robust z-score,Call
ZNF264,1.46,inactive
ZNF264,-0.33,inactive
ZNF264,-0.43,inactive
ZNF264,0.84,inactive
PGBDF,-0.68,inactive
PGBDF,-0.58,inactive
PGBDF,-0.7,inactive
PGBDF,0.18,inactive
THPO,-1.36,inactive
THPO,-1.57,active
THPO,-1.58,active
THPO,-1.1,inactive
EZH1,-1.61,active
EZH1,-0.91,inactive
EZH1,0.05,inactive
EZH1,-0.61,inactive
PRR27,0.48,inactive
PRR27,-0.12,inactive
PRR27,0.13,inactive
SLF2,0.14,inactive
SLF2,-0.49,inactive
SLF2,0.33,inactive
SLF2,-1.48,inactive
RBM12,-0.57,inactive
RBM12,0.62,inactive
RBM12,-0.33,inactive
RBM12,0.32,inactive
MTARC1,-0.62,inactive
MTARC1,-0.01,inactive
MTARC1,-0.47,inactive
MTARC1,0.23,inactive
NDST3,-0.47,inactive
NDST3,4.71,active
NDST3,0.25,inactive
NDST3,1.13,inactive
CNGA4,-0.98,inactive
CNGA4,0.93,inactive
CNGA4,0.17,inactive
CNGA4,-0.33,inactive
NFE4,0.03,inactive
NFE4,-1.17,inactive
NFE4,-0.54,inactive
NFE4,-0.76,inactive
ZNF395,-0.76,inactive
ZNF395,-0.71,inactive
ZNF395,-0.62,inactive
ZNF395,-0.36,inactive
PLXNB1,-0.72,inactive
PLXNB1,-0.48,inactive
PLXNB1,-0.94,inactive
PLXNB1,0.15,inactive
BTF3L4,-0.03,inactive
BTF3L4,2.39,inactive
BTF3L4,0.49,inactive
BTF3L4,0.97,inactive
CYRIA,-0.47,inactive
CYRIA,0.55,inactive
CYRIA,-0.66,inactive
CYRIA,-0.32,inactive
GSS,-0.98,inactive
GSS,-0.04,inactive
GSS,0.12,inactive
GSS,0.6,inactive
TEKT5,-0.43,inactive
TEKT5,0.19,inactive
TEKT5,-0.22,inactive
TEKT5,0.58,inactive
MPL,1.45,inactive
MPL,3.21,active
MPL,2.58,inactive
MPL,2.79,inactive
PIK3C3,0.62,inactive
PIK3C3,1.66,inactive
PIK3C3,-0.18,inactive
PIK3C3,0.51,inactive
MS4A5,0.02,inactive
MS4A5,0.05,inactive
MS4A5,-0.44,inactive
MS4A5,-0.51,inactive
IMPA2,-1.19,inactive
IMPA2,-0.5,inactive
IMPA2,-0.75,inactive
IMPA2,-0.41,inactive
RGN,-0.32,inactive
RGN,-0.78,inactive
RGN,-0.86,inactive
RGN,-0.5,inactive
UBE2K,-0.64,inactive
UBE2K,-0.47,inactive
UBE2K,0.76,inactive
UBE2K,-0.31,inactive
ATN1,0.26,inactive
ATN1,-0.31,inactive
ATN1,0.12,inactive
ATN1,0.68,inactive
CDRT15,-0.82,inactive
CDRT15,-1.04,inactive
CDRT15,-0.64,inactive
CERKL,-1.09,inactive
CERKL,-1.27,inactive
CERKL,-0.6,inactive
CERKL,-0.71,inactive
LRSAM1,0.18,inactive
LRSAM1,-0.26,inactive
LRSAM1,-1.16,inactive
LRSAM1,-0.91,inactive
TRPC7,-0.68,inactive
TRPC7,-0.79,inactive
TRPC7,-1.31,inactive
TRPC7,-0.65,inactive
WIPI1,-0.36,inactive
WIPI1,-0.67,inactive
WIPI1,-1.17,inactive
WIPI1,-1.24,inactive
CXCL12,2.02,inactive
CXCL12,3.45,active
CXCL12,-0.27,inactive
CXCL12,0.31,inactive
APH1B,3.2,active
APH1B,0.93,inactive
APH1B,-0.58,inactive
APH1B,0.65,inactive
ZNF137P,0.49,inactive
ZNF137P,1.79,inactive
ZNF137P,1.12,inactive
ZNF137P,1.99,inactive
MYL5,-0.29,inactive
MYL5,0.15,inactive
MYL5,-0.73,inactive
MYL5,0.44,inactive
CYB561D1,1.38,inactive
CYB561D1,-0.05,inactive
CYB561D1,0.49,inactive
CYB561D1,1.25,inactive
OR7D2,-0.53,inactive
OR7D2,-0.67,inactive
OR7D2,-0.73,inactive
OR7D2,0.37,inactive
RBM33,-0.65,inactive
RBM33,-0.52,inactive
RBM33,-1.32,inactive
RBM33,-0.92,inactive
